27 compounds from US4500707A, “Nucleosides useful in the preparation of polynucleotides” (University Patents, Inc., priority 1982, dated 1985) can be followed below.

Holding throughout (assay type): physicochemical
A short description of series [1]: Lewis acid hydrolysis rates of triarylmethyl groups attached to the 5'-hydroxyl of deoxynucleosides (Table VII). Particulars: tlc, exposure to HCl vapors.
Series [2] can be described thus: Protic acid hydrolysis rates of triarylmethyl groups attached to the 5'-hydroxyl of deoxynucleosides (Table VIII). Particulars: tlc, exposure to HCl vapors. Here is the method:
The 5'-triarylmethyldeoxynucleosides were treated with protic and Lewis acids using carefully controlled conditions. The results of these studies are also recorded in Tables VII and VIII. […] The rates are more variable with protic acids.
^1 Reaction conditions were 2% toluenesulfonic acid in
chloroform:methanol (7:3). Aliquots were removed from the reaction
solution, quenched with ammonium acetate and analyzed visually after tlc
and exposure to HCl vapors. Time points were taken at 15, 30, 45, 60, 90,

A short description of series [3]: Color of color coded nucleosides/phosphines in protic or Lewis acids (Tables X, XII).
A short description of series [4]: Color of trityl cations of triarylmethyl alcohols, tlc plates exposed to hydrochloric acid vapor (Table V). Particulars: triarylmethyl alcohol, tlc, hydrochloric acid vapor.
Setting [5] is: 5'-O-triarylmethylnucleoside-3'-N,N-dimethylaminomethoxyphosphine, Lewis acid or protic acid (Table XII).
[6] abbreviates: 5'-triarylmethyl deoxynucleoside exposed to protic or Lewis acids (Table X, text).

On to `COc1ccc(C(OC[C@H]2O[C@@H](n3cc(C)c(=O)[nH]c3=O)C[C@@H]2O)(c2ccccc2)c2ccc(OC)cc2)cc1` [5'-Dimethoxytritylthymidine], for which the “Color in Acid” value in series [1] and in series [2] was “Orange” in each case.

Turning to `COc1ccccc1C(OC[C@H]1O[C@@H](n2ccc(NC(=O)c3ccccc3)nc2=O)C[C@@H]1OP(OC)N(C)C)(c1ccccc1OC)c1cccc2ccccc12` (some centres unmarked) [5'-O--di-o-anisyl-1-napthylmethyl-N--benzoyldeoxycytidine-3'-N,N--dimethylaminomethoxyphosphine], in series [3] (setting [5]), the Color result is listed as “Blue”.

Turning to `COc1ccc(C(OC[C@H]2O[C@@H](n3cnc4c(=O)[nH]c(NC(=O)C(C)C)nc43)C[C@@H]2OP(OC)N(C)C)(c2ccccc2)c2ccc(OC)cc2)cc1` (some centres unmarked) [5'-O--di-p-anisylphenylmethyl-N--isobutyryldeoxyguanosine-3'-N,N--dimethylaminomethoxyphosphine], in series [3] (setting [5]), the Color entry is “Orange”.

With `COc1ccc(C(OC[C@H]2O[C@@H](n3cc(C)c(=O)[nH]c3=O)C[C@@H]2OP(OC)N(C)C)(c2ccccc2)c2cccc3ccccc23)cc1` (some centres unmarked) [5'-O--p-anisyl-1-naphthylphenylmethyldeoxythymidine-3'-N,N--dimethylaminomethoxyphosphine], the Color entry in series [3] (setting [5]) is “Red”.

Take `COP(O[C@H]1C[C@H](n2cnc3c(NC(=O)c4ccccc4)ncnc32)O[C@@H]1COC(c1ccccc1)(c1ccccc1)c1ccc(C)cc1)N(C)C` (some centres unmarked) [5'-O--p-tolyldiphenylmethyl-N--benzoyldeoxyadenosine-3'-N,N--dimethylaminomethoxyphosphine]: the Color result in series [3] (setting [5]) was “Yellow”.

With `COc1ccc(C(OC[C@H]2O[C@@H](n3cnc4c(NC(=O)c5ccccc5)ncnc43)C[C@@H]2O)(c2ccccc2)c2ccc(OC)cc2)cc1` [5'-O-dimethoxytrityl-N-benzoyldeoxyadenosine], the “Color in Acid” value in series [1] and in series [2] was “Orange” each time.

With `COc1ccc(C(OC[C@H]2O[C@@H](n3ccc(NC(=O)c4ccccc4)nc3=O)C[C@@H]2O)(c2ccccc2)c2ccc(OC)cc2)cc1` [5'-O-dimethoxytrityl-N-benzoyldeoxycytidine], the “Color in Acid” value in series [1] and in series [2] was “Orange” each time.

For `COc1ccc(C(OC[C@H]2O[C@@H](n3cnc4c(=O)[nH]c(NC(=O)C(C)C)nc43)C[C@@H]2O)(c2ccccc2)c2ccc(OC)cc2)cc1` [5'-O-dimethoxytrityl-N-isobutyryldeoxyguanosine], the “Color in Acid” value in series [1] and in series [2] was “Orange” each time. Also, the Color result in series [3] (setting [6]) is on record as “Orange”.

On to `COc1ccccc1C(OC[C@H]1O[C@@H](n2cnc3c(=O)[nH]c(NC(=O)C(C)C)nc32)C[C@@H]1O)(c1ccccc1)c1ccccc1OC` [R1 = R2 = b; R3 = a, G], for which the “Color in Acid” value in series [1] and in series [2] was “Black” throughout.

For `COc1ccccc1C(OC[C@H]1O[C@@H](n2ccc(NC(=O)c3ccccc3)nc2=O)C[C@@H]1O)(c1ccccc1OC)c1cccc2ccccc12` [R1 = R2 = b; R3 = n, C], the “Color in Acid” value in series [1] and in series [2] was “Blue” each time. Besides, the Color result in series [3] (setting [6]) is “Blue”.

In the case of `COc1ccccc1C(OC[C@H]1O[C@@H](n2cc(C)c(=O)[nH]c2=O)C[C@@H]1O)(c1ccccc1OC)c1cccc2ccccc12` [R1 = R2 = b; R3 = n, T], the “Color in Acid” value in series [1] and in series [2] was “Blue” throughout.

Take `Cc1ccc(C(OC[C@H]2O[C@@H](n3cnc4c(NC(=O)c5ccccc5)ncnc43)C[C@@H]2O)(c2ccccc2)c2ccccc2)cc1` [R1 = h; R2 = R3 = a, A]: the “Color in Acid” value in series [1] and in series [2] was “Yellow” throughout. In addition, in series [3] (setting [6]), the Color result is listed as “Yellow”.

For the compound `Cc1ccc(C(O)(c2ccccc2)c2ccccc2)cc1` [R1 = h; R2 = R3 = a], the Color result in series [4] was “Yellow”.

For the compound `Cc1ccc(C(O)(c2ccc(Cl)cc2)c2ccc(Cl)cc2)cc1` [R1 = h; R2 = R3 = g], in series [4], the Color entry is on record as “Canary Yellow”.

For the compound `Cc1ccc(C(O)(c2ccccc2)c2ccc(Cl)cc2)cc1` (centres unmarked) [R1 = h; R2 = g; R3 = a], in series [4], the Color entry is “Canary Yellow”.

As to `Cc1ccc(C(O)(c2ccccc2)c2ccccc2Cl)cc1` (centres unmarked) [R1 = h; R2 = j; R3 = a], in series [4], the Color result was “Canary Yellow”.

For `Cc1ccc(C(O)(c2ccccc2)c2ccc(Br)cc2)cc1` (centres unmarked) [R1 = h; R2 = l; R3 = a], the Color entry in series [4] is on record as “Canary Yellow”.

For `OC(c1ccccc1)(c1ccccc1)c1cccc2ccccc12` [R1 = n; R2 = R3 = a], the Color result in series [4] is “Green”.

As for `OC(c1ccc(Cl)cc1)(c1ccc(Cl)cc1)c1cccc2ccccc12` [R1 = n; R2 = R3 = g], the Color entry in series [4] was “Green”.

On to `COc1ccc(C(OC[C@H]2O[C@@H](n3cc(C)c(=O)[nH]c3=O)C[C@@H]2O)(c2ccccc2)c2cccc3ccccc23)cc1` (some centres unmarked) [R1 = n; R2 = c; R3 = a, T], for which the “Color in Acid” value in series [1] and in series [2] was “Green” each time. Besides, in series [3] (setting [6]), the Color result is “Red”.

As for `Cc1cn([C@H]2C[C@H](O)[C@@H](COC(c3ccccc3)(c3ccc(F)cc3)c3cccc4ccccc34)O2)c(=O)[nH]c1=O` (some centres unmarked) [R1 = n; R2 = e; R3 = a, T], the “Color in Acid” value in series [1] and in series [2] was “Red” each time.

Take `OC(c1ccccc1)(c1ccc(Cl)cc1)c1cccc2ccccc12` (centres unmarked) [R1 = n; R2 = g; R3 = a]: the Color result in series [4] was “Green”.

Turning to `OC(c1ccccc1)(c1ccccc1Cl)c1cccc2ccccc12` (centres unmarked) [R1 = n; R2 = j; R3 = a], the Color entry in series [4] is recorded as “Green”.

Turning to `OC(c1ccccc1)(c1ccc(Br)cc1)c1cccc2ccccc12` (centres unmarked) [R1 = n; R2 = l; R3 = a], the Color entry in series [4] is “Green”.

As for `OC(c1ccccc1)(c1ccccc1)c1ccc(-c2ccccc2)cc1` [R1 = p; R2 = R3 = a], in series [4], the Color entry is recorded as “Yellow”.

On to `O=[N+]([O-])c1ccc(C(O)(c2ccccc2)c2ccc(-c3ccccc3)cc2)cc1` (centres unmarked) [R1 = p; R2 = a; R3 = i], for which the Color entry in series [4] is reported as “Yellow”.

As for `OC(c1ccccc1)(c1ccc(-c2ccccc2)cc1)c1ccccc1Cl` (centres unmarked) [R1 = p; R2 = a; R3 = j], in series [4], the Color entry is listed as “Colorless”.
